Experimental data reported in patent US20240142403A1 (priority 2022, published 2024).

Experiment: Breath sample assay for TCE and associated byproducts (SUPER SESI-HRMS, negative-ion mode)
Parameters: species or system human; key: a “—” denotes non-detection
Conditions: healthy subject; for value of abundance in breath, Breath 2: breath 2 of five; for value of abundance in breath, Breath 3: breath 3 of five; for value of abundance in breath, Breath 4: breath 4 of five; for value of abundance in breath, Breath 5: breath 5 of five; for value of abundance in breath, Breath 1: breath 1 of five

1,2-dichlorovinyl cysteine [1,2-dichlorovinyl cysteine (DCVC)]
—: value of abundance in breath, Breath 2 | value of abundance in breath, Breath 3 | value of abundance in breath, Breath 4 | value of abundance in breath, Breath 5

N[C@@H](CCC(=O)N[C@@H](CSC(Cl)=CCl)C(=O)NCC(=O)O)C(=O)O [1,2,dichlorovinyl glutathione]
—: value of abundance in breath, Breath 1 | value of abundance in breath, Breath 2 | value of abundance in breath, Breath 3 | value of abundance in breath, Breath 4 | value of abundance in breath, Breath 5

ClC=C(Cl)Cl [Trichlorethylene, Trichloroethylene]
—: value of abundance in breath, Breath 3 | value of abundance in breath, Breath 4 | value of abundance in breath, Breath 5

S=C=CCl [chlorothioketene]
—: value of abundance in breath, Breath 1 | value of abundance in breath, Breath 2 | value of abundance in breath, Breath 3 | value of abundance in breath, Breath 4 | value of abundance in breath, Breath 5

O=C(O)C(Cl)(Cl)Cl [trichloro acetic acid]
—: value of abundance in breath, Breath 1 | value of abundance in breath, Breath 2 | value of abundance in breath, Breath 3 | value of abundance in breath, Breath 4 | value of abundance in breath, Breath 5

OCC(Cl)(Cl)Cl [trichloroethanol]
—: value of abundance in breath, Breath 1 | value of abundance in breath, Breath 2 | value of abundance in breath, Breath 3 | value of abundance in breath, Breath 4 | value of abundance in breath, Breath 5
